{"source": "PubChem BioAssay AID652272 (Drosophila RNAi Screening Center, 2013)", "test": "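Genes whose knock-down decreases or increases Hedgehog reporter output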 (primary screen)", "cell system": "Drosophila clone 8 (Cl8) cells", "knock-down reagent": "long dsRNA against Drosophila genes", "measured": "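Firefly light from a Hedgehog-responsive ptc promoter reporter and Renilla reference light, both read on a plate reader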", "direction": "firefly Hh reporter signal: higher = more ptc reporter light; Renilla reference signal: higher = more Renilla control light", "active means": "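Hit when the z-score averaged over two replicates is under -2 or over +3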", "calls": "active = hit: reporter lowered or raised; inactive = not a hit", "note": "The deposit covers about 21,000 reagents; below is a random part of those that have a named target and a result. In the full data, 503 (2.4%) got an active call. 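Raw plate light values, not normalised; calls rest on replicate z-scores that were not deposited; hits include reporter decreases as well as increases.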 Not stated in the record: the amount of reagent, the time to read-out."}
{"target gene":"CG15765","DRSC id":"DRSC18071","firefly Hh reporter signal, replicate 1":66952,"firefly Hh reporter signal, replicate 2":35597,"Renilla reference signal, replicate 1":1845,"Renilla reference signal, replicate 2":884,"Call":"inactive"}
{"target gene":"eIF3h","DRSC id":"DRSC01995","firefly Hh reporter signal, replicate 1":75066,"firefly Hh reporter signal, replicate 2":58155,"Renilla reference signal, replicate 1":4103,"Renilla reference signal, replicate 2":2941,"Call":"inactive"}
{"target gene":"128up","DRSC id":"DRSC05027","firefly Hh reporter signal, replicate 1":49824,"firefly Hh reporter signal, replicate 2":60231,"Renilla reference signal, replicate 1":1963,"Renilla reference signal, replicate 2":2347,"Call":"inactive"}
{"target gene":"DIP-eta","DRSC id":"DRSC02342","firefly Hh reporter signal, replicate 1":1.02e5,"firefly Hh reporter signal, replicate 2":69426,"Renilla reference signal, replicate 1":2279,"Renilla reference signal, replicate 2":6827,"Call":"inactive"}
{"target gene":"CG12723","DRSC id":"DRSC19499","firefly Hh reporter signal, replicate 1":95338,"firefly Hh reporter signal, replicate 2":3.26e5,"Renilla reference signal, replicate 1":2999,"Renilla reference signal, replicate 2":11369,"Call":"inactive"}
{"target gene":"CG13148","DRSC id":"DRSC06275","firefly Hh reporter signal, replicate 1":92571,"firefly Hh reporter signal, replicate 2":91456,"Renilla reference signal, replicate 1":2032,"Renilla reference signal, replicate 2":5497,"Call":"inactive"}
{"target gene":"Nepl3","DRSC id":"DRSC02681","firefly Hh reporter signal, replicate 1":69616,"firefly Hh reporter signal, replicate 2":57834,"Renilla reference signal, replicate 1":3250,"Renilla reference signal, replicate 2":2688,"Call":"inactive"}
{"target gene":"CG4438","DRSC id":"DRSC02746","firefly Hh reporter signal, replicate 1":85569,"firefly Hh reporter signal, replicate 2":37700,"Renilla reference signal, replicate 1":2615,"Renilla reference signal, replicate 2":5152,"Call":"inactive"}
{"target gene":"CG15278","DRSC id":"DRSC02481","firefly Hh reporter signal, replicate 1":1.06e5,"firefly Hh reporter signal, replicate 2":49979,"Renilla reference signal, replicate 1":3015,"Renilla reference signal, replicate 2":4555,"Call":"inactive"}
{"target gene":"Yp2","DRSC id":"DRSC18732","firefly Hh reporter signal, replicate 1":80856,"firefly Hh reporter signal, replicate 2":75920,"Renilla reference signal, replicate 1":1938,"Renilla reference signal, replicate 2":1586,"Call":"inactive"}
{"target gene":"CG3902","DRSC id":"DRSC10387","firefly Hh reporter signal, replicate 1":89509,"firefly Hh reporter signal, replicate 2":1.38e5,"Renilla reference signal, replicate 1":2819,"Renilla reference signal, replicate 2":3680,"Call":"inactive"}
{"target gene":"anchor","DRSC id":"DRSC10861","firefly Hh reporter signal, replicate 1":93883,"firefly Hh reporter signal, replicate 2":66246,"Renilla reference signal, replicate 1":4091,"Renilla reference signal, replicate 2":2749,"Call":"inactive"}

2 entries from above, ordered by “firefly Hh reporter signal, replicate 2”, highest first.
{"target gene":"eIF3h","DRSC id":"DRSC01995","firefly Hh reporter signal, replicate 1":75066,"firefly Hh reporter signal, replicate 2":58155,"Renilla reference signal, replicate 1":4103,"Renilla reference signal, replicate 2":2941,"Call":"inactive"}
{"target gene":"CG15765","DRSC id":"DRSC18071","firefly Hh reporter signal, replicate 1":66952,"firefly Hh reporter signal, replicate 2":35597,"Renilla reference signal, replicate 1":1845,"Renilla reference signal, replicate 2":884,"Call":"inactive"}
